For the series, the target named is T1, cPARP3 NTD-WGR (1-169) (Gallus gallus) (UniProt E1BSI0).
T1 sequence (looked up): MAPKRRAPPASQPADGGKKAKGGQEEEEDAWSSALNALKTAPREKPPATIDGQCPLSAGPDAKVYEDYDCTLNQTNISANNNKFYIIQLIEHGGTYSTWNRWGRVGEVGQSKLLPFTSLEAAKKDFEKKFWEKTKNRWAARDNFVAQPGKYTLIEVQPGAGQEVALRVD
The series is described as follows: NMR (1H-15N HSQC). The settings on record: no 5'-phosphate, no significant perturbations in WGR; none (5'-OH at nick); NMR: 20 mM Tris-HCl pH 7.0, 125 mM NaCl, 1 mM TCEP, 10% D2O, 303 K, ~300 uM protein; recombinant protein; residues 1-169.

For at least one entry, the source does not settle the construct or the ends of the probe. A negative result means that nothing was seen under these conditions. At least one verdict rests on a figure or table, not on a statement of the authors. Tags and fusion partners may be left off the protein sequences shown.

With “GCACAGCCGTGAGCGATGC / GCATCGCTCA / CGGCTGTGC [NMR DNA substrate lacking 5'-phosphate]”, the binding result was “no binding”.
